Measured values as given in US9175313B2, “Three-dimensional structure of isoprene synthase and its use thereof for generating variants” (Danisco US Inc., priority 2009, dated 2015).

Assay: Small scale expression and yield of purified 6xHis-tagged IspS variants
Details: yield of purified protein compared to wild type IspS
Experimental: N-terminally 6×His-tagged wild type IspS, IspS-L494P, and IspS-T536F were expressed and purified from strains MD09-167, DW399, and DW363, respectively. The growth procedure is suitable for histidine tagged enzymes expressed in BL21(λDE3)pLysS cells. A 3 ml of overnight culture was prepared for each 100 mL of planned growth. The appropriate antibiotics ([…] kanamycin, […] chloramphenicol) were added to 3 ml of LB medium in a 10 ml glass tube and was inoculated with 1 colony from a fresh plate of cells or directly from glycerol frozen cell stock. Cultures were grown at 30° C. overnight with shaking at ˜220 rpm. Day cultures were prepared in 100 mL of LB medium with appropriate antibiotics for each culture. Each 100 mL day culture was inoculated with 50 μl of overnight culture and grown at 37° C. with shaking at ˜220 rpm until the OD600 reached ˜0.4-0.6. Day cultures were then induced with 400 μM IPTG and allowed to continue growing at 30° C. with shaking at 220 rpm for ˜5-6 hours. Cells were then harvested by centrifugation at 10,000×g for 10 min, 4° C. Following Harvest, cells were used directly or stored at −80° C. until ready to process.
For purification of histidine tagged enzymes from BL21(λDE3)pLysS cells, cells were gently resuspended in fresh Lysis buffer (Lysis buffer: Ni wash buffer+0.5 mM PMST, 0.01% Tween-20, 1 mg/ml lysozyme, 0.2 mg/ml DNaseI; Ni wash buffer: 50 mM NaH2PO4, 300 mM NaCl, 20 mM Imidazole, pH 8.0). Approximately 3 ml of lysis buffer was used per 5 mL of cell pellet. Cells were then incubated on ice for approximately 30 min. The cell suspension was then lysed fully by passing 2-3 times through a french pressure cell (small french press cell at 850 psi/Low setting) until lysate started to look clear. […]
To buffer exchange the protein into a buffer suitable for protein assays and storage, a PD-10 column (GE Healthcare) was equilibrated with 25 mL PD-10 buffer (50 mM HEPES, 0.05 M NaCl, pH 7.4). […] The eluate was then analyzed by absorbance at 280 nm and SDS-PAGE gel and the samples were stored at −80° C.

B1: wild type IspS: P. alba MEA (+) TEV isoprene synthase, MD09-163, strain MD09-167, SEQ ID NO: 63 (protein)
chain: MEARRSANYEPNSWDYDYLLSSDTDESIEVYKDKAKKLEAEVRREINNEKAEFLTLLELIDNVQRLGLGYRFESDIRGALDRFVSSGGFDAVTKTSLHGTALSFRLLRQHGFEVSQEAFSGFKDQNGNFLENLKEDIKAILSLYEASFLALEGENILDEAKVFAISHLKELSEEKIGKELAEQVNHALELPLHRRTQRLEAVWSIEAYRKKEDANQVLLELAILDYNMIQSVYQRDLRETSRWWRRVGLATKLHFARDRLIESFYWAVGVAFEPQYSDCRNSVAKMFSFVTIIDDIYDVYGTLDELELFTDAVERWDVNAINDLPDYMKLCFLALYNTINEIAYDNLKDKGENILPYLTKAWADLCNAFLQEAKWLYNKSTPTFDDYFGNAWKSSSGPLQLVFAYFAVVQNIKKEEIENLQKYHDTISRPSHIFRLCNDLASASAEIARGETANSVSCYMRTKGISEELATESVMNLIDETWKKMNKEKLGGSLFAKPFVETAINLARQSHCTYHNGDAHTSPDELTRKRVLSVITEPILPFERENLYFQGLEHHHHHH
modifications: TEV site
In the case of B1, the “Relative Yield” value is reported as 1.

B2: L494P: P. alba IspS variant L494P; pDW101, strain DW399, SEQ ID NO: 69 (protein)
chain: B1 chain with L494P
For B2, the “Relative Yield” value was 1.3.

B3: T536F: P. alba IspS variant T536F; pDW87, strain DW363, SEQ ID NO: 95 (protein)
chain: B1 chain with T536F
In the case of B3, the “Relative Yield” value is reported as 1.9.

Changes are numbered by the printed parent chain. Names and notes keep the numbering of the source.
